This note sets out measurements from PubChem BioAssay AID2685 (National Center for Advancing Translational Sciences (NCATS), 2010).

Several values for one entry are separate records, joined by “and”; a condition that tells them apart may be missing. Equal entries are not always repeated. The list shows a part of the results. These are further read-outs of the screen, such as a control signal, another cell line or another target. No call is given for them. Compounds called inactive in the main read-out are mostly missing here. Potencies come from curve fits of mixed quality, noted in brackets.

This experiment is described as follows: qHTS Assay for Lipid Storage Modulators in Drosophila S3 Cells.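 On cell number change: cells counted by Cell Tracker Red CMTPX staining in the red channel.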 The settings on record: BODIPY lipid droplet fluorescence, 18-24 h; for cell number change: measured here: cell count max response, cells fed with added oleic acid. The method, boiled down:
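Laser-scanning cytometry quantifies lipid droplet accumulation (500–530 nm total intensity; droplet/cell object ratio) in oleic acid-fed (400 uM added) Drosophila S3 cells treated with a concentration series. 20 uM Triacsin C defined 100% inhibition.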
For orientation: Quantitative high-throughput screening tests each substance at several concentrations.

Where [1] appears, read: measured here: lipid fluorescence (Fed channel) AC50, cells fed with added oleic acid.
[2] abbreviates: measured here: cell number channel AC50, cells fed with added oleic acid.

For orientation: AC50 means the concentration at which the activity in the assay is half-maximal. A high value points to weaker potency. With `O=C(CCN1C(=O)/C(=C/c2ccccc2Cl)SC1=S)NN1CCOCC1`, the cell number change is -3.06%. Further, the AC50 under setting [1] was 0.259 µM [falling, partial curve, poor fit].

For the compound `O=C(Nc1nc2ccccc2s1)C1CC(=O)N(c2ccccc2)C1` (configuration not stated), the cell number change was -14.2%.

`CCCOC(=O)c1ccc(NC(=O)c2c(Cl)ccc(Cl)c2OC)cc1`: the cell number change stood at 8.72%. Besides, the AC50 under setting [1] was 6.51 µM [rising, single point].

As for `CCO[C@@H]1OC(C(=O)NCc2ccccc2)=C[C@H](c2ccc(Br)cc2)[C@H]1CCCO`, the cell number change is -19.3%.

For the compound `CN(C)/C=N/c1nc(Sc2ccc(C(F)(F)F)cc2[N+](=O)[O-])n[nH]1`, the cell number change was 33.8%. Besides, the AC50 under setting [2] was 29.1 µM [rising, single point]. In addition, the AC50 under setting [1] was 13 µM [rising, partial curve, poor fit].

For the compound `CCN(CC)C(=O)c1c(NC(=O)c2ccccc2)sc(C)c1C`, the cell number change was determined as 24.7%. For the same compound, the AC50 under setting [2] was 0.731 µM [rising, full curve, poor fit].

For the compound `CN(CCCNC(=O)c1ccccc1F)CCCNC(=O)c1ccccc1F`, the cell number change is -2.03%. Further, the AC50 under setting [1] is 23.1 µM [falling, single point].

Consider `CCOC(=O)C1CCCN(c2ncnc3c2[nH]c2cccc(OC)c23)C1` (configuration not stated), for which the AC50 is, setting by setting: under setting [2], 4.11 µM [falling, single point]; under setting [1], 9.2 µM [falling, partial curve].

`COc1ccc(C(=O)c2sc3nc(-c4ccccc4)ccc3c2N)cc1OC`: the cell number change is -48.9%. Moreover, the AC50 under setting [2] is 18.4 µM [falling, single point].

As for `Cc1ccc(NCc2ccccc2OCc2ccccc2F)cc1`, the cell number change was -32.3%. Also, the AC50 under setting [2] was 20.6 µM [falling, single point]. Moreover, under setting [1], the AC50 is 23.1 µM [falling, single point].

For `Cn1c(=O)c2c(nc(Oc3ccc4c(c3)OCO4)n2Cc2ccc(Br)cc2)n(C)c1=O`, the cell number change worked out at 14.9%. Also, the AC50 under setting [1] was 3.66 µM [falling, single point].

With `COc1ccc(CCC(=O)N2CC(C)OC(C)C2)cc1` (configuration not stated), the cell number change came out at 1.69%. In addition, the AC50 under setting [1] was 7.31 µM [falling, partial curve].

For the compound `CC(C)c1ccc2c(c1)c(SC(C)(C)C)c(CC(C)(C)C(=O)O)n2Cc1ccc(Cl)cc1`, the cell number change was -79.5%. In addition, under setting [2], the AC50 was 14.6 µM [falling, partial curve] and 6.51 µM [rising, single point]. Under setting [1], the AC50 is 16.4 µM [falling, partial curve].

Consider `Cc1ccc(N2CC(C(=O)OCC(=O)Nc3cccc(Cl)c3C)CC2=O)cc1` (configuration not stated), for which the cell number change came out at 26.6%. Besides, the AC50 under setting [1] was 0.461 µM [rising, single point].

In the case of `NC(=O)c1ccccc1NC(=O)C1CCCO1` (configuration not stated), the cell number change is 8.2%. For the same compound, the AC50 under setting [1] is 32.6 µM [rising, single point].

`Cc1cc(C)cc(NC(=S)N2CCC(NC(=O)c3ccccc3C)CC2)c1`: the cell number change came to 9.82%. Also, under setting [1], the AC50 was 23.1 µM [rising, partial curve].

Turning to `CCOC(=O)C1CCCN(C(=S)Nc2ccc(Nc3ccccc3)cc2)C1` (configuration not stated), the cell number change was -39.5%. Besides, the half-maximal activity concentration (AC50) under setting [1] is 0.562 µM [falling, full curve, poor fit].

Take `CCN(CC)S(=O)(=O)c1ccc(NC(=O)COC(=O)CNC(=O)C2CCCCC2)cc1`: the cell number change was -42.6%. In addition, the concentration at half-maximal activity (AC50) under setting [2] is 0.366 µM [falling, full curve].

`COc1ccc(CCNC(=O)C2CCN(S(=O)(=O)c3cccc4nsnc34)CC2)cc1OC`: under setting [1], the AC50 is 20.6 µM [rising, single point].

`CC(C)NC(=S)N/N=C/c1c[nH]c2ccccc12`: the AC50 under setting [1] was 1.84 µM [rising, partial curve].

Regarding `COC(=O)[C@@H]1C[C@H]1[C@@H](NC(=O)c1ccccc1)c1ccccc1`, the cell number change was -5.11%. Under setting [1], the AC50 was 9.2 µM [rising, partial curve, poor fit].

On to `Clc1ccc(CSc2ncn(-c3ccccc3)n2)cc1`, for which the cell number change is -51.4%. For the same compound, the AC50 under setting [2] was 14.6 µM [falling, partial curve, poor fit]. For the same compound, the AC50 under setting [1] is 0.326 µM [falling, partial curve].

As to `Clc1ccc(/C=N/c2c(-c3ccc(Cl)cc3)nc3n2CCS3)cc1`, the cell number change was -16.2%. For the same compound, the AC50 under setting [1] is 5.8 µM [falling, full curve, poor fit].

Consider `CSc1ccccc1NC(=O)C1=COCCO1`, for which the cell number change stood at 2.79%.

As for `CN(C)S(=O)(=O)c1ccc(C(=O)Nc2ccccc2[N+](=O)[O-])cc1`, the cell number change was determined as 24%. Also, the AC50 under setting [1] is 32.6 µM [rising, single point].

In the case of `CCCCOc1ccc(S(=O)(=O)Nc2ccc(NC(C)=O)cc2)cc1`, the cell number change was -27.1%. Besides, the AC50 under setting [1] is 13 µM [falling, single point].

In the case of `Cc1nn(-c2ccccc2)c2[nH]c(=O)c(CNc3ccc4c(c3)OCCO4)cc12`, the cell number change came to 18.1%.

As for `COc1ccc(S(=O)(=O)Nc2cc(OC)c(NC(=O)c3ccco3)cc2OC)cc1`, the cell number change came out at 40.9%. In addition, under setting [2], the AC50 was 0.291 µM [rising, full curve]. Under setting [1], the AC50 is 1.84 µM [rising, partial curve].

Regarding `O=C(CN1C(=O)c2ccccc2C1=O)NC1CCCCC1`, the AC50 under setting [1] is 0.058 µM [rising, full curve, poor fit].

For `COCCn1c(=S)[nH]c2cc(C(=O)NCCc3ccccc3)ccc2c1=O`, the AC50 under setting [1] was 0.411 µM [falling, full curve].

For the compound `O=S(=O)(c1ccc(OCC(O)CN2CCN(c3ccccc3)CC2)cc1)N1CCOCC1` (configuration not stated), under setting [2], the AC50 is 0.82 µM [falling, full curve, poor fit].

In the case of `Cc1c(-c2ccccc2)sc(Br)c1C(=O)N1CCOCC1`, the cell number change is -3.68%. The AC50 under setting [1] is 6.51 µM [falling, single point].

Regarding `Cc1cccc(N(CC(O)CN(C)C)S(=O)(=O)c2ccccc2)c1` (configuration not stated), the cell number change was -38.5%. Further, the AC50 under setting [1] was 29.1 µM [falling, single point].

Consider `CN1CCN(S(=O)(=O)c2ccc(NC(=O)c3ccco3)cc2)CC1`, for which the cell number change is -45.8%. Further, the AC50 under setting [2] is 1.16 µM [falling, full curve]. For the same compound, under setting [1], the AC50 was 3.26 µM [falling, full curve].

Take `CN(Cc1ccccc1)C(=O)c1[nH]cnc1C(=O)NCc1ccc(CNC(=O)OC(C)(C)C)cc1`: the cell number change stood at 14.4%. In addition, under setting [1], the AC50 is 20.6 µM [falling, single point].

For the compound `O=C(N/N=C\c1ccc(Br)cc1)c1ccc(Cn2cccn2)o1`, the AC50 under setting [1] was 10.3 µM [rising, partial curve, poor fit].

For `N/C(=N\OC(=O)c1ccc2ccccc2c1)c1ccc(Br)cc1`, the cell number change was -23.2%. For the same compound, the AC50 under setting [2] is 6.51 µM [rising, partial curve, poor fit]. In addition, the AC50 under setting [1] was 6.51 µM [rising, partial curve, poor fit].

For `CN1CCCN(S(=O)(=O)c2ccc(O)c(C(=O)O)c2)CC1`, the cell number change is 19%. The AC50 under setting [1] was 32.6 µM [rising, single point].

`COc1cc(C2Nc3ccccc3C(=O)N2NS(C)(=O)=O)ccc1O` (configuration not stated): the cell number change is -26.3%.

With `C/C(=N\NC(=S)NC(C)C)c1ccccc1OC(F)F`, the cell number change was 30.2%. Also, under setting [2], the AC50 is 0.00411 µM [rising, full curve, poor fit].

For `Cc1nn(Cc2ccccc2)c(C)c1C(=O)NCCN1C(=O)S/C(=C\c2ccccc2)C1=O`, the cell number change was -34.9%. Further, the half-maximal activity concentration (AC50) under setting [2] is 29.1 µM [falling, single point]. Moreover, under setting [1], the AC50 was 29.1 µM [falling, single point].

For `COc1ccc(-c2csc3ncnc(N4CCN(c5ccccc5[N+](=O)[O-])CC4)c23)cc1`, the cell number change was -21.3%. Further, the AC50 under setting [1] is 29.1 µM [falling, single point].

As to `CCc1nnc(NC(=O)c2cccc(S(=O)(=O)N3CCN(c4ccccc4)CC3)c2)s1`, the cell number change is -10.5%.

`O=c1c2c3c(sc2ncn1Cc1ccc(F)cc1)CCC3`: the AC50 is 2.91 µM [rising, partial curve] under setting [2] and 4.61 µM [rising, partial curve] under setting [1].

On to `C=CCN(CC=C)S(=O)(=O)c1ccc(C(=O)Nc2nc3c(s2)CCc2ccccc2-3)cc1`, for which the cell number change is -5.3%. For the same compound, the AC50 under setting [2] is 1.64 µM [rising, partial curve]. Moreover, the AC50 under setting [1] was 2.59 µM [rising, partial curve].

For the compound `Cc1onc(-c2c(F)cccc2Cl)c1C(=O)Nc1cccc2nsnc12`, the cell number change is -3.07%. The half-maximal activity concentration (AC50) under setting [1] is 6.51 µM [falling, single point].

For the compound `c1ccc(-c2nnsc2-c2ccccc2)cc1`, under setting [1], the AC50 was 0.651 µM [rising, single point].

In the case of `COc1ccc([C@H]2CC(=O)C=C(c3ccc(O)cc3)C2)cc1OC`, the cell number change was -48.9%. In addition, the half-maximal activity concentration (AC50) under setting [2] is 1.3 µM [falling, full curve]. Moreover, the AC50 under setting [1] was 1.3 µM [falling, full curve].

On to `CCCCCCN(C(=O)CCCCCN1C(=O)NC(c2ccc(-c3ccccc3)cc2)C(C(=O)OCc2ccccc2)=C1C)C(C(=O)NCCCC)c1ccccc1` (configuration not stated), for which the cell number change was -11.5%. The AC50 under setting [1] was 0.651 µM [falling, full curve].

With `Cc1ccc(S(=O)(=O)Nc2cc(NC(=O)CN3CCOCC3)ccc2Cl)cc1`, the cell number change was -14.2%.

For `Cc1sc2ncnc(-n3cnc4ccccc43)c2c1C`, the cell number change is -8.18%. Further, under setting [1], the AC50 is 1.3 µM [falling, partial curve, poor fit].

Regarding `Cc1cc(C)c(C(=O)Nc2ccc(Br)c(C(F)(F)F)c2)c(C)c1`, the cell number change is -20.5%. For the same compound, under setting [1], the AC50 was 29.1 µM [falling, single point].

Turning to `Cc1ccccc1Nc1c([N+](=O)[O-])ccc2c1=NC1(CCCCC1)N=2`, the cell number change was -0.481%. For the same compound, the AC50 under setting [1] is 29.1 µM [falling, single point].

As for `CCOc1ccccc1N(CC(=O)Nc1ccc(S(=O)(=O)N2CCOCC2)cc1)S(=O)(=O)c1ccccc1`, the cell number change was -6.69%.

As to `Cc1cc(Br)cn2cc(C(=O)O)nc12`, the cell number change was -4.86%. Besides, the half-maximal activity concentration (AC50) under setting [2] is 0.00461 µM [falling, full curve, poor fit]. The AC50 under setting [1] is 0.58 µM [falling, full curve, poor fit].

Turning to `CCCCNc1nc(N)nc(-c2cc(Cl)ccc2O)n1`, the cell number change is -84.6%. In addition, the AC50 under setting [2] was 29.1 µM [falling, single point]. Also, the AC50 under setting [1] is 16.4 µM [falling, single point].

As for `Cc1ccccc1-c1noc(-c2ccccc2C(=O)N2CCCC2)n1`, the cell number change is 42%. Besides, the AC50 under setting [2] was 5.8 µM [rising, full curve]. The AC50 under setting [1] is 0.00461 µM [rising, full curve, poor fit].
